PubChem BioAssay AID1259307 – Sanger Institute | 2017
Assay: 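Screen of kinase gene silencing for colorectal cancer cell killing and drug cooperation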 (primary screen). Cell system: SW620 colorectal cancer cells. Reagents: siRNA pool against human genes. Challenge: anchor drugs BYL719 at 1 µM, cetuximab at 5 µg/ml or trametinib at 10 nM, each beside a DMSO vehicle arm. Read-out: 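Per-well viability versus non-targeting control pool, replicate-averaged, robust z-score from controls; synergy scores for BYL719 1 µM, cetuximab 5 µg/ml, trametinib 10 nM against DMSO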. Scale: viability robust z-score, no drug and viability vs control, no drug: higher = more viable cells; synergy score with BYL719: higher = stronger synthetic lethality with the drug. Call rule: 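a knock-down counts as lethal alone if its drug-free robust viability z-score is lower than -3, regardless of synergy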. Calls: active = essential (lethal alone); inactive = no change alone.
This is an unselected part of 794 reagents. 15 of all reagents (1.9%) count as active. 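Calls reflect lethality without any drug; synergy scores did not enter the calls.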 A number with no mark means an inactive call. No viability above 1 is reported: the scale is capped. Not all columns of the deposit are shown. Reagent sequences are not shown. Not given: the amount of reagent, the time to read-out.

gene symbol | viability robust z-score, no drug | viability vs control, no drug | synergy score with BYL719
CAMKK2 | 0.736 | 1 | -0.0919
PIK3CD | 0.699 | 0.997 | 0.0351
CDK20 | -0.4 | 0.895 | 0.0118
DGKH | 0.736 | 1 | 0.0638
SIK2 | -0.206 | 0.913 | -0.0041
STK32C | 0.736 | 1 | -0.0624
PCK2 | 0.733 | 1 | 0.0505
ALPK3 | 0.736 | 1 | 0.0297
STK4 | 0.109 | 0.942 | -0.0551
STRADA | -0.406 | 0.895 | -0.132
PFKFB4 | 0.736 | 1 | -0.0919
TESK1 | 0.736 | 1 | -0.0191
TJP2 | -1.61 | 0.783 | 0.0191

Part of the list above, set out differently.
gene symbol,"viability robust z-score, no drug","viability vs control, no drug",synergy score with BYL719
STRADA,-0.406,0.895,-0.132
PFKFB4,0.736,1,-0.0919

The list goes on:
gene symbol | viability robust z-score, no drug | viability vs control, no drug | synergy score with BYL719
CDK6 | 0.736 | 1 | 0.0626
PRKCA | -0.615 | 0.875 | -0.0559
ROR1 | 0.425 | 0.971 | -0.0535
MET | 0.64 | 0.991 | 0.0738
GUCY2F | 0.736 | 1 | -0.0158
RPS6KB2 | 0.593 | 0.987 | -0.0794
MKNK2 | -1.33 | 0.809 | 0.00111
